In PubChem BioAssay AID485314 (National Center for Advancing Translational Sciences (NCATS), 2010):
Screen size: about 340,000 compounds; about 4,500 (1.3%) were called active. The shares of active, inactive and inconclusive entries below differ from those in the screen. The call rests on the fitted dose curve; in most records, active means well fitted inhibition curve with a large enough effect; inconclusive means small, poorly fitted or top-dose-only effect, or another doubt; inactive means no such curve, though single readings can be large or run the other way. Potencies of inconclusive entries are doubtful fits and often do not repeat.

target: DNA polymerase beta (Homo sapiens) (UniProt P06746); assay: qHTS Assay for Inhibitors of DNA Polymerase Beta; details: Pol beta primer extension/strand displacement, fluorescence kinetic; activity change, negative = inhibition: at 114 µM (top of the series)
Outline: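 Preincubation: enzyme (10 nM) with compound, 15 min, RT. Reaction: substrate added to 50 nM final. Reads: 0 and 10 min. Analysis: normalized, Hill fit.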
On the % scale 0 is the no-effect control and ±100 the full control effect; potency means the concentration at half of the fitted maximal effect.

Row | SMILES | Potency | activity change, negative = inhibition
1 | CCCc1ccc(C(=O)NNc2ccc(F)cc2)cc1 | inactive | –
2 | Cc1ccc2oc(-c3ccc(NC(=O)c4cccnc4)cc3)nc2c1 | inconclusive: 56.2 µM [inhibitor, single point] | –
3 | O=C1c2cccc3c(Cl)ccc(c23)C(=O)N1O | inconclusive: 50.1 µM [inhibitor, partial curve] | –
4 | Cc1cc2c(cc3c(SCc4cccc(Cl)c4)nnc(C)n32)o1 | inactive | –
5 | O=C(Nc1nc(-c2cc3ccccc3oc2=O)cs1)c1ccco1 | active: 8.91 µM | –
6 | COc1ccc(CCNC(=O)c2cc3c(=O)n4ccccc4nc3n2C)cc1 | inconclusive: 89.1 µM [inhibitor, single point] | –
7 | O=[N+]([O-])c1ccccc1OCCNCc1ccccc1 | inconclusive: 5.62 µM [inhibitor, partial curve, poor fit] | –
8 | O=C(NNc1cccc(Cl)n1)c1c(F)cccc1F | inactive | –
9 | CCc1nc(N)c(C#N)c(-c2ccco2)c1C | inconclusive: 89.1 µM [inhibitor, single point] | –
10 | Cc1cc(OCC(=O)Nc2ccc(C(=O)OC3CCCCC3)cc2)ccc1Cl | inactive | –
11 | CC(CN1CCCCC1)OC(=O)COc1ccc(Br)cc1 (stereo not drawn) | inconclusive: 2 µM [inhibitor, single point] | –
12 | COc1ccc(NS(=O)(=O)c2ccc(O)c(NC(=O)c3ccc(S(=O)(=O)N4CCCCCC4)cc3)c2)cc1 | active: 12.6 µM | –
13 | O=C(c1cnn(-c2ccc(F)cc2)c1-n1cccc1)N1CCN(c2cccc(Cl)c2)CC1 | inactive | –
14 | Cc1ccc(N2CC(C(=O)Nc3ccc4c(c3)OCO4)CC2=O)cc1C (stereo not drawn) | inconclusive: 56.2 µM [inhibitor, partial curve, poor fit] | –
15 | CCOC(=O)c1cccc(Nc2ncnc3ccccc23)c1 | inconclusive: 0.282 µM [inhibitor, full curve, poor fit] | –
16 | CCOc1ccc(NC(=O)C(=O)NCCc2sc(-c3ccc(C)cc3)nc2C)cc1 | inactive | –
17 | O=C(NCc1ccco1)C1c2ccccc2Oc2ccccc21 | active: 17.8 µM | –
18 | CCOC(=O)c1[nH]c(C)c(C(=O)/C=C/c2ccc(C(=O)O)cc2)c1C | inactive | –
19 | NC(=O)CC(NC(=O)Cc1ccc(Br)cc1)c1ccc(N2CCC(Br)CC2)c([N+](=O)[O-])c1 (stereo not drawn) | – | inconclusive: -38.4% [inhibitor]
20 | O=C(CSCCO)Nc1cccc(C(F)(F)F)c1 | inactive | –
21 | COc1ccc(Nc2nc(N)nc(CCl)n2)cc1 | inconclusive: 70.8 µM [inhibitor, single point] | –
22 | CSc1nsc(SC)c1C(=O)Nc1ccc(Cl)cc1 | inconclusive: 79.4 µM [inhibitor, single point] | –
23 | Cc1cc(-c2csc3nc[nH]c(=S)c23)cc(C)c1C | inactive | –
24 | COc1ccc(NC(=O)c2cccs2)cc1 | inactive | –

Individual results from above.
Entry of CCOC(=O)c1[nH]c(C)c(C(=O)/C=C/c2ccc(C(=O)O)cc2)c1C under Potency: inactive
Entry of CC(CN1CCCCC1)OC(=O)COc1ccc(Br)cc1 (stereo not drawn) under Potency: inconclusive: 2 µM [inhibitor, single point]
Entry of NC(=O)CC(NC(=O)Cc1ccc(Br)cc1)c1ccc(N2CCC(Br)CC2)c([N+](=O)[O-])c1 (stereo not drawn) under activity change, negative = inhibition: inconclusive: -38.4% [inhibitor]
Entry of Cc1ccc2oc(-c3ccc(NC(=O)c4cccnc4)cc3)nc2c1 under Potency: inconclusive: 56.2 µM [inhibitor, single point]

Further compounds:

Row | SMILES | Potency | activity change, negative = inhibition
25 | COc1ccc(NC(=O)C2Cc3ccccc3CN2S(=O)(=O)c2ccccc2)cc1OC (stereo not drawn) | inactive | –
26 | CCc1ccccc1NC(=O)CCCn1c(=O)c2cccn2c2ccccc21 | inconclusive: 79.4 µM [inhibitor, single point] | –
27 | C/C(=N/Nc1nc(-c2ccccc2)cc(-c2ccccc2)n1)c1ccc(N)cc1 | inconclusive: 79.4 µM [inhibitor, single point] | –
28 | CC(=O)c1ccc(NC(=O)c2ccc3nc(-c4ccco4)c(-c4ccco4)nc3c2)cc1 | active: 2.82 µM | –
29 | CCC(=O)Nc1ccc(CC)cc1-c1nc2ccccc2n(CC(=O)c2ccc(OC)cc2)c1=O | inconclusive: 89.1 µM [inhibitor, single point] | –
30 | O=C(NCc1ccccc1)c1nc2c(nnn2Cc2cccc(Cl)c2)c(=O)[nH]1 | inconclusive: 89.1 µM [inhibitor, single point] | –
31 | COc1ccc2oc(=O)c(/C(C)=N/Nc3ccccc3)cc2c1 | inactive | –
32 | Cc1ccccc1C(=O)N1CCN(c2ccc(NC(=O)CSc3ccc(Cl)cc3)cc2)CC1 | inconclusive: 112 µM [inhibitor, partial curve] | –
33 | O=C1C=C(NCc2ccccc2)c2ccccc2C1=O | inconclusive: 63.1 µM [inhibitor, single point] | –
34 | CCC(=O)Oc1ccc2c(c1)O/C(=C\c1ccco1)C2=O | inconclusive: 70.8 µM [inhibitor, single point] | –
35 | CCOC(=O)c1cc2c(=O)n3ccccc3nc2n(Cc2ccco2)c1=NC(=O)c1cccc(Br)c1 | active: 22.4 µM | –
36 | COc1ccc2c(c1)cc1n2CCN=C1NN | inconclusive: 22.4 µM [inhibitor, full curve, poor fit] | –
37 | CCOC(=O)c1ccc(N2N=C(C)/C(=C/C=C/c3ccco3)C2=O)cc1 | inconclusive: 39.8 µM [inhibitor, single point] | –
38 | Oc1ccc(-c2cn3c(n2)SCC3)cc1O | active: 1.26 µM | –
39 | CCN(CC)c1ccc(NC(=O)CCc2c(C)nc3ncnn3c2C)c(C)c1 | inactive | –
40 | O=C(CSc1ccccn1)N/N=C/C=C/c1ccccc1 | inconclusive: 79.4 µM [inhibitor, single point] | –
41 | O=C(NCC(=O)N1CCN(c2ccccc2O)CC1)c1ccc2c(c1)OCO2 | inconclusive: 31.6 µM [inhibitor, partial curve] | –
42 | Cc1ccc(NC(=O)c2cc(-c3ccccc3)nn2-c2ccccc2)c(Br)c1 | inconclusive: 0.398 µM [inhibitor, full curve, poor fit] | –
43 | Cc1ccc(C)c(N2CCN(S(=O)(=O)c3ccc4c(c3)NC(=O)CO4)CC2)c1 | inconclusive: 89.1 µM [inhibitor, single point] | –
44 | Cc1cc(C(=O)CSc2nnnn2C)c(C)n1Cc1ccco1 | inconclusive: 70.8 µM [inhibitor, partial curve] | –
45 | Cc1c(C(=O)O)cccc1-c1ccc(/C=N/Nc2ccc(Br)cc2)o1 | inconclusive: 89.1 µM [inhibitor, single point] | –
46 | c1ccc(-c2nc3ccccc3c3nncn23)cc1 | inconclusive: 70.8 µM [inhibitor, single point] | –
47 | Cn1c(SCC(=O)N/N=C/C=C\c2ccco2)nc2ccccc21 | active: 44.7 µM | –
48 | CCOC(=O)c1ccc(NC(=O)CSc2ncc(S(=O)(=O)c3ccc(C)c(Cl)c3)c(=O)[nH]2)cc1 | active: 89.1 µM | –
